No constants are given. Whether binding was seen depends on the method and setting. Some binding calls cover weakened binding; strength is not graded here. Sequences can lack the tags named with a protein.
Experiments:
[1] = molecular target: T1, PapDHis (uropathogenic Escherichia coli (UPEC)) (UniProt P15319); assay: co-purification (nickel affinity, size exclusion chromatography); PapDHis and PapA co-expressed; periplasmic extract; HisTrap HP then Superdex 75 in 20 mM Tris (pH 7.5), 150 mM NaCl, 4°C; SDS-PAGE
T1 sequence: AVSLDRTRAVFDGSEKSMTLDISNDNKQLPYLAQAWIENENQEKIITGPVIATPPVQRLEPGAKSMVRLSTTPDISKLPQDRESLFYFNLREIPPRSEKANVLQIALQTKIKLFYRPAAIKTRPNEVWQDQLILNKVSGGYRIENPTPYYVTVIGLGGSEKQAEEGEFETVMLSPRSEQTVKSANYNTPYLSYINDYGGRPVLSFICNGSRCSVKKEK

[2] = molecular target: T1, PapDHis (uropathogenic Escherichia coli (UPEC)); assay: SEC; purified PapDHis:PapA left to polymerize at 20°C for 16 hr at 38 μM; Superdex 200 10/300 increase; donor-strand exchange (DSE) products; both purified

B1: PapA wild-type (natural protein)
chain: APTIPQGQGKVTFNGTVVDAPCSISQKSADQSIDFGQLSKSFLEAGGVSKPMDLDIELVNCDITAFKGGNGAKKGTVKLAFTGPIVNGHSDELDTNGGTGTAIVVQGAGKNVVFDGSEGDANTLKDGENVLHYTAVVKKSSAVGAAVTEGAFSAVANFNLTYQ
notes: PapA, major P pilus rod subunit of uropathogenic E. coli; Ala1 is the very N terminus in the model; also called major pilus subunit PapA; P pilus rod subunit
B1 was tested, and the binding [1] was “binds” and the binding [2] was “binds”.
